Variants at the background level are over-represented here. Bounds are passed on as bounds.

B1: tRNA (parent)
chain: GUUCCGUUGGCGUAAUGGUAACGCGUCUCCCUCCUAAGGAGAAGACUGCGGGUUCGAGUCCCGUACGGAACG

Variants of B1 are the subject of this data set. Put plainly: yeast fitness relative to wild type (ratio to wild type); higher = fitter; tRNA-Arg(CCU), competitive growth, 37 C, YPD. Summed up: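 Genotype frequency changes were the basis for Darwinian fitness relative to wild type. The frequencies came from 100-nucleotide paired-end sequencing of gene amplicons from the start population and each end population of pooled yeast strains with tRNA-Arg(CCU) gene variants at the native locus. Competition ran in YPD at 37°C for 24 hours in six replicates, genotypes needed ≥ 100 starting reads, and estimates < 0.5 were set to 0.5.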
As for GUUCCGUUGGCGUCAUGGUAACGCGUCUCAGUCCUAAGGAGAAGACUGCGGGUUCGAGUCCCGAACGGAACG [A14C C30A C31G U64A], the yeast fitness amounted to 0.584.

Turning to GUUCCAUUGGCGUAUUGGUAAAGCGUCUCCCUCCUAAGGAGAAGACUGCGGGUUCGAGUCCCGUACGGAACG [G6A A15U C22A], the yeast fitness is not above 0.5.

On to GUUCCGUUGAGGUAAUGGUAACGCGUCACCCUUCUAAAGAGAAGACUGCGGGUUCGAGUCCCGUACGGAACG [G10A C11G U28A C33U G38A], for which the yeast fitness was not above 0.5.

For the variant GUUCCGUUGGCGUAAUGGUAACGCGGCUCCCUCCUAAGGAGAAGACUGCGGGUUCGAGUUCCGUACGGUACG [U26G C60U A69U], the yeast fitness is not above 0.5.

Regarding GUUCGGUUGGCGUACUGGUAACGCGUCUACCUCCUAAGGAGAAGACUGCGGGUUCGAGUCCCGUACGGAACG [C5G A15C C29A], the yeast fitness was not above 0.5.

GUUCCGUUGGCGUAAUGGUAACGCGUCUCUCUCCUAAGGAGAAGAAUGCGAGUUCGAGUCCCGUACGGAACG [C30U C46A G51A]: the yeast fitness worked out at 0.608.

Consider GUUCCGGUGGCGUAAUGGUAACGCGUCUCCCUCCUAUGCAGAAGGCUGCAGGUUCGAGUCCCGUACGGAACG [U7G A37U G39C A45G G50A], for which the yeast fitness was not above 0.5.

For the variant GUUUCGUUGGCAUAAUGGUAACGCGUCUCCCUCCUAAGGAGAAGACUGCGGGUUCGAGUGCCGUACGGAACG [C4U G12A C60G], the yeast fitness is not above 0.5.

For the variant GUUCCGUUGGCGUAAUGGUAACCCGCCUCCCUCUUAAGGAGAAGACUGCGGGUUCGAGUCCCGUACGGAACG [G23C U26C C34U], the yeast fitness was not above 0.5.

For GUUCCGUUGCCGAAAUGGUAACGCGUCUCACUCCUAAGGAGCAGACUGCGGGUUCAUGUCCCGUACGGAACG [G10C U13A C30A A42C G56A A57U], the yeast fitness is not above 0.5.

As to GUUCCGUUGGCGUAAUGGUAACGCGUCUCCCGUCUAAGGAGAAGACUGCGGGUUCGAGUCCCGUACCGAACG [U32G C33U G67C], the yeast fitness is not above 0.5.

In the case of GUUCCGUUGGCGUAAUGAUAACGCGUUUCCAUCCUAAGGAGAAAACUGCGGGUUCGAGUCCCGUACGGAACG [G18A C27U C31A G44A], the yeast fitness was not above 0.5.

As for GUUCCGUUGGCGUAAUGGUAACGCGUCUACCUCCUAUGGAGACGACUGCGGGUUCGAGUCCCGUACGGAACG [C29A A37U A43C], the yeast fitness turned out to be 0.733.

As to GUUCCGUUGCCGUAAUGGUAAGGCGUCUACCUCCUAAGGAGAAGACUGCGGGUUCGAGUCCCGUACGGAACG [G10C C22G C29A], the yeast fitness is not above 0.5.

For GUGCCGUUGGUGUAAUGGUAACGCGUCUCCCUCCUAAGGAGAAGACUGCGCGUUCGAGUCCCGUACGGAACG [U3G C11U G51C], the yeast fitness was not above 0.5.

Regarding GCUCCGUUGGCGUAAUGGUAACGCGUCUUCCUCCUAAGGAGAAGAGUGCGACUUCGAGUCCCGUACGGAACG [U2C C29U C46G G51A G52C], the yeast fitness was determined as 0.557.

Take GUUCCAUUGGCGUAAUGGUAACGCGUGUCCCUCCUAACGAGAAGACUGCGGGUUCGAGUCCCAUCCGGAACG [G6A C27G G38C G63A A65C]: the yeast fitness is not above 0.5.

GUUCCGUUCGCGUAAUGGUAACGCGUCUCCCUCCUAAGGAGAACACUGCGGGUUCGAGUCCCGUACAGAACG [G9C G44C G67A]: the yeast fitness is not above 0.5.

As for GUCCAGUUGGCGUAAUGGUAACGCGUCUCCCUCCUAAGGAGAAGACUGCGGGUUCGAGUCCCGUAUGGAACG [U3C C5A C66U], the yeast fitness was 0.605.

Consider GUUCCGUUGGCGUAAUGGUAACGCGUUUCCCUCUUAAGGAGAAGACUGCGGGUUAGAGUCCCGUACGGAACG [C27U C34U C55A], for which the yeast fitness was not above 0.5.

Take GUUCCGAUGGCGUAAUGGUCGCACGUCUCCCUCCUAAGGAGAAGACUGCGGAUUCGAGUCCCGUACGGAACG [U7A A20C A21G G23A G52A]: the yeast fitness was not above 0.5.

For the variant GUUUCGUUGGCGUAAUGGUAACGCGUCUCCCUCAUAGGGACAAGACUGCGGGUUGGAGUCCCGUACGGAACG [C4U C34A A37G G41C C55G], the yeast fitness is not above 0.5.

Turning to GCUCGGUUAGCGUAUUGGUAACGCGUCUCCCUCCUAAGGAGAAGACUGCGGGUUCGAGUCCUGUACGGUACG [U2C C5G G9A A15U C62U A69U], the yeast fitness was not above 0.5.

For GUUCCGUUGGUGUAAUGGUAUCGCGUCUCCGUCCUAAGCAGAAGACUGCGGGUUCGAGUGCCGUACGGAACG [C11U A21U C31G G39C C60G], the yeast fitness was not above 0.5.

Turning to GUUCCGUUGGCGUAAUGGUACCGCGUCUCGCUCCUAAGGAGAAGACUGCGGGUUCGAGUCCCGUAAGGAACG [A21C C30G C66A], the yeast fitness is 0.572.

With GUUCCGUUGGGGUAUUGGUAACGCGUCUCCCUCCUUAGGAGAAGACUGCGGGUUCGAGUCCCGUACGGAACG [C11G A15U A36U], the yeast fitness is not above 0.5.

Regarding GUUCCGUUGGCGUAAUGGUAACGCAUGUCCCUCCUAAGGAGAAGACUGCGGGUUCGAGUCCCGUGCGGAACG [G25A C27G A65G], the yeast fitness was not above 0.5.

In the case of GUUCCGUUGACGUAAUGGUAACGCGUCUCCCUCCUAAGGAGAAGACUGCGGGUUCGAGUUCUGUACGGAACG [G10A C60U C62U], the yeast fitness was not above 0.5.

With GUACCGUUGGCGUAAUGGUACCGCGUCUCCCUCCUUAGGAGAAGACUGCGGGUUCGAGCCCCGUACGGAACG [U3A A21C A36U U59C], the yeast fitness is not above 0.5.

For the variant GUUCCGUUGGCGUAAUGGUAACGCCUCUCCCUUCUAAGGAGAUGACUGCGGGUUCGAGUCGCGUACGGAACG [G25C C33U A43U C61G], the yeast fitness was not above 0.5.

With GUUGCGUUGGCGUAAUGGUAACGCGUCUCCCUCCUAAGGAGAAGACUGCGGGUUUGAGUCCCGUGCGCAACG [C4G C55U A65G G68C], the yeast fitness was not above 0.5.

As for GUUCCGUUGGCGUAAUGGUAACGCGUCUCCCUCCUAAGGAGAAGACUACGGGUUCGAGUGCAGUGCGGAACG [G48A C60G C62A A65G], the yeast fitness is not above 0.5.

Take GUUCCGUUGGCGUCAUGGUACCGUGUCUCCCUCCUUAGGAGAUGACUGCGGGUUCGACUCCCGUAAGGAACG [A14C A21C C24U A36U A43U G58C C66A]: the yeast fitness was not above 0.5.

Regarding GUUCAGUUGGCGUAAUGGUAACGCGUCGCCCUCCUAAGGAGAAAACUGCGGGUUCGAGUCCCGUACGGAACG [C5A U28G G44A], the yeast fitness is not above 0.5.

For the variant GUUCCGUUAGCGUAAUGGUAACGCGUGUCCCUCCUAAGGGGAAGACUGCGGGUUCCAGUCCCGUACGGAACG [G9A C27G A40G G56C], the yeast fitness was not above 0.5.

With GUUCCGUUGGCGUAAUGGUAACGCGUCCCACUCCUAAGAAGAAGACUGCGGGUUCGAGUCCCGUAUGGAACG [U28C C30A G39A C66U], the yeast fitness turned out to be 0.594.

As for GUUCCGUUGGCGUAAUCGUAACGCGUCUCCCUUAUAAGGAGACGACUGCGGGUUCGAGUCCCGUACGGAACG [G17C C33U C34A A43C], the yeast fitness is not above 0.5.

With GUUCCGUUGGCGUACUGGUAACGCGUCUCCCUCCUAAGGAGAAGACUGCGGGUUCGAAUCGGGUACGGAACG [A15C G58A C61G C62G], the yeast fitness is not above 0.5.

Values taken from the RNAGym collection of RNA variant scans (doi:10.1126/science.aae0568).
